54 sequences from PMC7819943, “Rice protein-binding microarrays: a tool to detect cis-acting elements near promoter regions in rice” can be followed below.

The other results are listed elsewhere or left out.

This test has as its target T1, OsSMF1 (Oryza sativa, UniProt Q6ZLB0 1-436).
T1 sequence: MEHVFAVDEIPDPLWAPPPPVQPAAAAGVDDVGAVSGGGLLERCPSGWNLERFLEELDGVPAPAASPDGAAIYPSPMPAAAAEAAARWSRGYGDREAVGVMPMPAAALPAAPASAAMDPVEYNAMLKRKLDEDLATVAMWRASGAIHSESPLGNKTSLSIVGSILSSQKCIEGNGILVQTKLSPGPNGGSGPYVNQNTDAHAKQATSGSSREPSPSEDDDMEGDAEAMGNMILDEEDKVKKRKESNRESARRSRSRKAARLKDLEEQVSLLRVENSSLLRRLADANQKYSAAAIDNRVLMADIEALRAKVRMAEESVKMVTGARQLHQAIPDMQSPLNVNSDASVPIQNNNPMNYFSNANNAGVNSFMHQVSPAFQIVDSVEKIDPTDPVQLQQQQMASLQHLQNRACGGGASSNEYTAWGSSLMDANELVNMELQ
As to the kind of experiment: protein-binding microarray (RPBM); PBS, 2% BSA, 51.3 ng/ul salmon testes DNA, 50 uM zinc acetate, 200 nM TF, 25 C, 1 h; high values mean tight binding. The note with it: protein: recombinant; tags: N-terminal polyhistidine and DsRed monomer fusion (pET32a); chain copies: 2; label: CyDye5-dUTP incorporated in the synthesized complementary strand; 3' TTTTT single-stranded linker to array surface; dsDNA, one strand shown. Summed up: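 Polyhistidine-tagged DsRed fusions of transcription factors, joined at the N-terminus, were expressed in E. coli BL21-CodonPlus and isolated on Ni–NTA. They were incubated at 200 nM for 1 h at 25 °C on a custom Agilent array, double-stranded and BSA-blocked, in PBS with 2% BSA, salmon testes DNA and 50 µM zinc acetate. The binding signal is per-feature fluorescence intensity (arbitrary units) read on an Axon 4000B scanner after washing.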
For the sequence “GCATTTGCCACCTCGACCAAGAAGCCCATTGACGGGGACGCGGAGTCACCTAGTGCAG”, the binding signal was 3720 fluorescence intensity (a.u.).
In the case of “GTAATATGCATAATAGTCATCACATGATTGATATCTCGTCCGGAGTCACCTAGTGCAG” it was 3470 fluorescence intensity (a.u.); in that of “CTCAAAACCACACCGTTAAATGTTTTACCCTACTCTCGTACGGAGTCACCTAGTGCAG”, 39200 fluorescence intensity (a.u.); in that of “AATAGCAGCTGCCCTGGTGCTGCTTCTCACGTTTTAGAGCCGGAGTCACCTAGTGCAG”, 16000 fluorescence intensity (a.u.).
On to “AATGGACCACCGTTAGTCCACCAGTCAGCCAACCAATGGCCGGAGTCACCTAGTGCAG”, for which the binding signal is 3360 fluorescence intensity (a.u.).
In the case of “ATCGGTCCTACACCTCCTAGCCAACTGCAGACTGTCGAGACGGAGTCACCTAGTGCAG” it was 3380 fluorescence intensity (a.u.); in that of “CGGCCGGCGGAGGCGGAGGCCGTGGCGGCGGCGGCGGGGTCGGAGTCACCTAGTGCAG”, 4010 fluorescence intensity (a.u.).
With “GCTGACCCGTCACTGACAGGGTGGGCCCCACGCCCCGGCGCGGAGTCACCTAGTGCAG”, the binding signal was 4400 fluorescence intensity (a.u.).
In the case of “AATTGAGAGGGCATCATCAGATTAAAGCTATGGCATGGCGCGGAGTCACCTAGTGCAG” it was 26200 fluorescence intensity (a.u.); in that of “AGACAACACTTGCCCATCTCGGCATCGTGACGCGCCGCCGCGGAGTCACCTAGTGCAG”, 3410 fluorescence intensity (a.u.); in that of “AGGCGCCACGTGGACATCGAGATGGTGCGGCGGAGGCTGGCGGAGTCACCTAGTGCAG”, 16800 fluorescence intensity (a.u.).
For the sequence “ACCTACGCCAGCCACCACGACCATCCATCCTCTGCTGCACCGGAGTCACCTAGTGCAG”, the binding signal is 3630 fluorescence intensity (a.u.).
In the case of “TCACGCCATCCCGTGTGATTCAGTCGATCGGCCAGCGTGGCGGAGTCACCTAGTGCAG” it was 6730 fluorescence intensity (a.u.); in that of “ACTACAATATTAATGTATGGTCCTACCTGTCATACACACACGGAGTCACCTAGTGCAG”, 4650 fluorescence intensity (a.u.); in that of “ATCTCTCCTCTAGGCGTCTTTTGGTATATAGGAGTATCTCCGGAGTCACCTAGTGCAG”, 25400 fluorescence intensity (a.u.).
In the case of “GGCAAATGGGGCCTCCACGTGCTCTTATCCTCATGCAAGTCGGAGTCACCTAGTGCAG” it was 5300 fluorescence intensity (a.u.); in that of “TTGTGTTATTCATGTCATAATGTATTCATGCTCTTGGATTCGGAGTCACCTAGTGCAG”, 3340 fluorescence intensity (a.u.); in that of “GGTGGTTAGGCTACTTGTAATGGTACACATTGCTATCAAACGGAGTCACCTAGTGCAG”, 4080 fluorescence intensity (a.u.).
As to “TTCAATTCTGCCATTTGTTTCTGACTTGGATACCCTTGCCCGGAGTCACCTAGTGCAG”, the binding signal was 4040 fluorescence intensity (a.u.).
In the case of “ATATATGCTACTAGTTATTCCTCGTAAACAAACGATTCATCGGAGTCACCTAGTGCAG” it was 25600 fluorescence intensity (a.u.); in that of “CGGGGCGGCTGGCTTGACGCGTCATCTTCCCCGCGAAAATCGGAGTCACCTAGTGCAG”, 6570 fluorescence intensity (a.u.).
As to “TGGCATGTAAGATGTCACGCGTGAGCCTACCTGGTTGCGACGGAGTCACCTAGTGCAG”, the binding signal was 3570 fluorescence intensity (a.u.).
“GTCATCACCACCACGCGAGCTCGCTCAGCAACACGACACGCGGAGTCACCTAGTGCAG”: the binding signal is 3590 fluorescence intensity (a.u.).
With “CACCAAGGTACTCTTGTGACGCACGCACTCATCGCCATCGCGGAGTCACCTAGTGCAG”, the binding signal was 4340 fluorescence intensity (a.u.).
Turning to “ACCACACACACACTGACACTGTGACACAACACAACACGGCCGGAGTCACCTAGTGCAG”, the binding signal was 6920 fluorescence intensity (a.u.).
The value for “AGAGGGGCAGGCCCACTGACACGTGGGGTCCACCCGCCGTCGGAGTCACCTAGTGCAG” was 16400 fluorescence intensity (a.u.).
As for “ATTGTTCGATTCGACACGACGACACTATCCCCTCCCACTTCGGAGTCACCTAGTGCAG”, the binding signal is 4190 fluorescence intensity (a.u.).
In the case of “TAGTTTTATCAACCCTCTCTCCACGTGCCATCCCTGCTTTCGGAGTCACCTAGTGCAG” it was 8400 fluorescence intensity (a.u.).
Consider “AACGGCAGGAAGCACATCCACGTGGAAGATCACTGCAATACGGAGTCACCTAGTGCAG”, for which the binding signal was 9720 fluorescence intensity (a.u.).
The value for “CGTTCTGACGACGAACACACGGAGATAGAGAAAGAGAGAGCGGAGTCACCTAGTGCAG” was 33200 fluorescence intensity (a.u.).
As to “GGTCGAGCATCCCGTCACCTTCCCACTCCTCATTTGCTCGCGGAGTCACCTAGTGCAG”, the binding signal is 4790 fluorescence intensity (a.u.).
Take “TGAGATTAACGACAAATGGTTCCGCGTCACCGGGTCAGAGCGGAGTCACCTAGTGCAG”: the binding signal is 9000 fluorescence intensity (a.u.).
“TGATCAAACTGGGATGGAGGGAGTAGTAGTACCAATCATTCGGAGTCACCTAGTGCAG”: the binding signal was 3330 fluorescence intensity (a.u.).
As to “TCCAGCCACGCCTCGTCACTCGCCACCCACACTGCGCAAGCGGAGTCACCTAGTGCAG”, the binding signal is 7390 fluorescence intensity (a.u.).
In the case of “ACATCAACTATCACAAATGCTATGACTAATGCTTGATTCGCGGAGTCACCTAGTGCAG” it was 4500 fluorescence intensity (a.u.); in that of “TTACATTGCTGACATATGTGTTGTTCAAACTTGAAATTTGCGGAGTCACCTAGTGCAG”, 4000 fluorescence intensity (a.u.); in that of “TAGATCGTGTAACTGAGGCGAGCTGACCTGGCTTGTTTTCCGGAGTCACCTAGTGCAG”, 7730 fluorescence intensity (a.u.).
In the case of “GATTCATTCGGGCTGGCTACGATCCTGGATGCATCAGTCACGGAGTCACCTAGTGCAG” it was 4700 fluorescence intensity (a.u.); in that of “TTTGCATGCTTCATTACCACCTTCATCCACGTTGAAAGTACGGAGTCACCTAGTGCAG”, 4160 fluorescence intensity (a.u.); in that of “GTGGTACACGCATGCTGACTAATTAAGACCGACAGAATCCCGGAGTCACCTAGTGCAG”, 3390 fluorescence intensity (a.u.).
In the case of “TCTCCTGGTTTTGTGTGTTAGCGCTGTCAGTGTGTGGGTGCGGAGTCACCTAGTGCAG” it was 3780 fluorescence intensity (a.u.); in that of “TATGCAATCGAACTGTGTCACGTGGAAACTGACGTGAAGTCGGAGTCACCTAGTGCAG”, 5140 fluorescence intensity (a.u.); in that of “CCGCAATCAAAATTTAAATTTTAAAACTTAACTTTATAGTCGGAGTCACCTAGTGCAG”, 18700 fluorescence intensity (a.u.).
“CCGCCATCTCTGCCCCTCCACCGTCGTCGACGAACCGCCGCGGAGTCACCTAGTGCAG”: the binding signal is 3200 fluorescence intensity (a.u.).
In the case of “TAAGGTTTGTAAGTAACTTAAGGCATGTCGTCATTGCCATCGGAGTCACCTAGTGCAG” it was 3400 fluorescence intensity (a.u.); in that of “TCACCCTGTCCTCGTCACGTCCCATTTTACATCCACCACCCGGAGTCACCTAGTGCAG”, 6570 fluorescence intensity (a.u.).
In the case of “CAACGTTCCAACAAAATCAAGCGTCACCTCCTCGGAAACACGGAGTCACCTAGTGCAG” it was 4370 fluorescence intensity (a.u.).
Consider “TCCGGTTTCTAGCTTCTAGTTTGTTTTATAGATTCTTTAGCGGAGTCACCTAGTGCAG”, for which the binding signal was 25200 fluorescence intensity (a.u.).
With “TGGCCCGTAGTCAACATGCCACGTGGATGCCACATATGACCGGAGTCACCTAGTGCAG”, the binding signal is 6700 fluorescence intensity (a.u.).
Consider “GGAGAGGAAGGGGATGAGGTGGATTTTCTTGGAAGGACACCGGAGTCACCTAGTGCAG”, for which the binding signal was 3670 fluorescence intensity (a.u.).
As for “CTCTGCCATGGCGGCGCCGGCAGCCGTTCTTGCCGTGCTCCGGAGTCACCTAGTGCAG”, the binding signal was 24200 fluorescence intensity (a.u.).
The value for “TCGGTCTCTCCACCGATCGCGCCCGCGACACGTACGACGGCGGAGTCACCTAGTGCAG” was 7410 fluorescence intensity (a.u.); that for “ATATAATGAAATTTCAGAGAGGGTGGACTGGGCTTTATAGCGGAGTCACCTAGTGCAG” was 13400 fluorescence intensity (a.u.); that for “GCGCGGCGGCACGAGGACGACGCTGCGGTGGAGAGGAAAACGGAGTCACCTAGTGCAG” was 31600 fluorescence intensity (a.u.).
